{
  "source": "patent US20220213436A1",
  "about": "“BRAIN ORGANOID MACHINE INTERFACE” (The Regents of the University of California, priority 2019, published 2022)",
  "tested_on": "cortical organoids",
  "test": "Pharmacological manipulation of cortical organoid network activity recorded by multi-electrode array (MEA)",
  "format": "cell-based, human",
  "conditions": "8-month-old organoids, 10 μM bicuculline",
  "key": {"[1]": {"conditions": "recording 15 min after addition, 20 μM AP5, 20 μM CNQX, 50 μM muscimol, 25 μM baclofen"}},
  "note": "For at least one compound, name, drawing or mass did not settle the structure.",
  "data": [
    {"smiles": "CN1CCc2cc3c(cc2[C@H]1[C@@H]1OC(=O)c2c1ccc1c2OCO1)OCO3", "note": "[bicuculline]", "values": [
      {"measurement": "number of network-synchronized events", "value": "increased"},
      {"measurement": "oscillatory activity (subsequent reverberant peaks)", "value": "abolished"},
      {"measurement": "peak population firing rates", "value": "did not affect"},
      {"measurement": "number of bursts / burst activity", "setting": "[1]", "value": "increased"},
      {"measurement": "synchronous activity / synchrony indexes", "setting": "[1]", "value": "no impact"}
    ]}
  ]
}
